Measurements taken from the supplement of paper PMC6411743.
± gives the standard deviation of the averaged measurements. The entries are a selection whose mix differs from that of the whole data set.

Amino acid sequences for entries named in this document (tags omitted). A change or cut given only in a name is not applied to a line headed by its entry.
UniProt Q9UNS2: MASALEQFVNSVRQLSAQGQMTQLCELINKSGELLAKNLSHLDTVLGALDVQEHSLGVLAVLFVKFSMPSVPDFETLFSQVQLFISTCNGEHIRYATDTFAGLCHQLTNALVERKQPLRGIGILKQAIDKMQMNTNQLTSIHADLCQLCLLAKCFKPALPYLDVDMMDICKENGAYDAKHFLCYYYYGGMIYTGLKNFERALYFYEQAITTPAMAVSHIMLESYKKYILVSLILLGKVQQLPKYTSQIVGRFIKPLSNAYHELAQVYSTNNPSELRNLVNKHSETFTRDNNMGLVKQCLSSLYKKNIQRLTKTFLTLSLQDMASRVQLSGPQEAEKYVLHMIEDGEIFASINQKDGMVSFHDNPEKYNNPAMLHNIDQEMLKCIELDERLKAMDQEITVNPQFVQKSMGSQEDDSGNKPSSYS
UniProt Q9UH03, whole entry: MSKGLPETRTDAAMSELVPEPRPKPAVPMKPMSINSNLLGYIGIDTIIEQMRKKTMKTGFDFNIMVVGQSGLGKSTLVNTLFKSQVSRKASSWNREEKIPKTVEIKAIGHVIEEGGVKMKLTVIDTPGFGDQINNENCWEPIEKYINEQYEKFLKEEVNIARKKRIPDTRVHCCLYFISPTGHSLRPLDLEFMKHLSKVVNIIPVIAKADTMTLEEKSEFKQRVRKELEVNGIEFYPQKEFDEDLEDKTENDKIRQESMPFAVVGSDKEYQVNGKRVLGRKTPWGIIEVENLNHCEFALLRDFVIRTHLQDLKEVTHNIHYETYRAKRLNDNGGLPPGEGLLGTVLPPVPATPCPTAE
UniProt Q9UHV9, whole entry: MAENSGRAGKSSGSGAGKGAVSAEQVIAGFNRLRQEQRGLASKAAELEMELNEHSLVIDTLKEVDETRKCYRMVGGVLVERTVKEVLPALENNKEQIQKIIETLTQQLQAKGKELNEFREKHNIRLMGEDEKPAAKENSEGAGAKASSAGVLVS
UniProt Q9UG22: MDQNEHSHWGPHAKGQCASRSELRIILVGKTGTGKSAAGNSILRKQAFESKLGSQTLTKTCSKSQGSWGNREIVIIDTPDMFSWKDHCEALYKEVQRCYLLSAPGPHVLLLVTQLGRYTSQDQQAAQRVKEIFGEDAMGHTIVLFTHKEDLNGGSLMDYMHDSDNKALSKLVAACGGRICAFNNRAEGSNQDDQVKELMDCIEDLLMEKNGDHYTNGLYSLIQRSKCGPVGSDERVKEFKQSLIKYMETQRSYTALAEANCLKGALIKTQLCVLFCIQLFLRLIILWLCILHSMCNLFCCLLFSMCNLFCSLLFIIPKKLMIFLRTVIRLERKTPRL
UniProt Q9UQ35: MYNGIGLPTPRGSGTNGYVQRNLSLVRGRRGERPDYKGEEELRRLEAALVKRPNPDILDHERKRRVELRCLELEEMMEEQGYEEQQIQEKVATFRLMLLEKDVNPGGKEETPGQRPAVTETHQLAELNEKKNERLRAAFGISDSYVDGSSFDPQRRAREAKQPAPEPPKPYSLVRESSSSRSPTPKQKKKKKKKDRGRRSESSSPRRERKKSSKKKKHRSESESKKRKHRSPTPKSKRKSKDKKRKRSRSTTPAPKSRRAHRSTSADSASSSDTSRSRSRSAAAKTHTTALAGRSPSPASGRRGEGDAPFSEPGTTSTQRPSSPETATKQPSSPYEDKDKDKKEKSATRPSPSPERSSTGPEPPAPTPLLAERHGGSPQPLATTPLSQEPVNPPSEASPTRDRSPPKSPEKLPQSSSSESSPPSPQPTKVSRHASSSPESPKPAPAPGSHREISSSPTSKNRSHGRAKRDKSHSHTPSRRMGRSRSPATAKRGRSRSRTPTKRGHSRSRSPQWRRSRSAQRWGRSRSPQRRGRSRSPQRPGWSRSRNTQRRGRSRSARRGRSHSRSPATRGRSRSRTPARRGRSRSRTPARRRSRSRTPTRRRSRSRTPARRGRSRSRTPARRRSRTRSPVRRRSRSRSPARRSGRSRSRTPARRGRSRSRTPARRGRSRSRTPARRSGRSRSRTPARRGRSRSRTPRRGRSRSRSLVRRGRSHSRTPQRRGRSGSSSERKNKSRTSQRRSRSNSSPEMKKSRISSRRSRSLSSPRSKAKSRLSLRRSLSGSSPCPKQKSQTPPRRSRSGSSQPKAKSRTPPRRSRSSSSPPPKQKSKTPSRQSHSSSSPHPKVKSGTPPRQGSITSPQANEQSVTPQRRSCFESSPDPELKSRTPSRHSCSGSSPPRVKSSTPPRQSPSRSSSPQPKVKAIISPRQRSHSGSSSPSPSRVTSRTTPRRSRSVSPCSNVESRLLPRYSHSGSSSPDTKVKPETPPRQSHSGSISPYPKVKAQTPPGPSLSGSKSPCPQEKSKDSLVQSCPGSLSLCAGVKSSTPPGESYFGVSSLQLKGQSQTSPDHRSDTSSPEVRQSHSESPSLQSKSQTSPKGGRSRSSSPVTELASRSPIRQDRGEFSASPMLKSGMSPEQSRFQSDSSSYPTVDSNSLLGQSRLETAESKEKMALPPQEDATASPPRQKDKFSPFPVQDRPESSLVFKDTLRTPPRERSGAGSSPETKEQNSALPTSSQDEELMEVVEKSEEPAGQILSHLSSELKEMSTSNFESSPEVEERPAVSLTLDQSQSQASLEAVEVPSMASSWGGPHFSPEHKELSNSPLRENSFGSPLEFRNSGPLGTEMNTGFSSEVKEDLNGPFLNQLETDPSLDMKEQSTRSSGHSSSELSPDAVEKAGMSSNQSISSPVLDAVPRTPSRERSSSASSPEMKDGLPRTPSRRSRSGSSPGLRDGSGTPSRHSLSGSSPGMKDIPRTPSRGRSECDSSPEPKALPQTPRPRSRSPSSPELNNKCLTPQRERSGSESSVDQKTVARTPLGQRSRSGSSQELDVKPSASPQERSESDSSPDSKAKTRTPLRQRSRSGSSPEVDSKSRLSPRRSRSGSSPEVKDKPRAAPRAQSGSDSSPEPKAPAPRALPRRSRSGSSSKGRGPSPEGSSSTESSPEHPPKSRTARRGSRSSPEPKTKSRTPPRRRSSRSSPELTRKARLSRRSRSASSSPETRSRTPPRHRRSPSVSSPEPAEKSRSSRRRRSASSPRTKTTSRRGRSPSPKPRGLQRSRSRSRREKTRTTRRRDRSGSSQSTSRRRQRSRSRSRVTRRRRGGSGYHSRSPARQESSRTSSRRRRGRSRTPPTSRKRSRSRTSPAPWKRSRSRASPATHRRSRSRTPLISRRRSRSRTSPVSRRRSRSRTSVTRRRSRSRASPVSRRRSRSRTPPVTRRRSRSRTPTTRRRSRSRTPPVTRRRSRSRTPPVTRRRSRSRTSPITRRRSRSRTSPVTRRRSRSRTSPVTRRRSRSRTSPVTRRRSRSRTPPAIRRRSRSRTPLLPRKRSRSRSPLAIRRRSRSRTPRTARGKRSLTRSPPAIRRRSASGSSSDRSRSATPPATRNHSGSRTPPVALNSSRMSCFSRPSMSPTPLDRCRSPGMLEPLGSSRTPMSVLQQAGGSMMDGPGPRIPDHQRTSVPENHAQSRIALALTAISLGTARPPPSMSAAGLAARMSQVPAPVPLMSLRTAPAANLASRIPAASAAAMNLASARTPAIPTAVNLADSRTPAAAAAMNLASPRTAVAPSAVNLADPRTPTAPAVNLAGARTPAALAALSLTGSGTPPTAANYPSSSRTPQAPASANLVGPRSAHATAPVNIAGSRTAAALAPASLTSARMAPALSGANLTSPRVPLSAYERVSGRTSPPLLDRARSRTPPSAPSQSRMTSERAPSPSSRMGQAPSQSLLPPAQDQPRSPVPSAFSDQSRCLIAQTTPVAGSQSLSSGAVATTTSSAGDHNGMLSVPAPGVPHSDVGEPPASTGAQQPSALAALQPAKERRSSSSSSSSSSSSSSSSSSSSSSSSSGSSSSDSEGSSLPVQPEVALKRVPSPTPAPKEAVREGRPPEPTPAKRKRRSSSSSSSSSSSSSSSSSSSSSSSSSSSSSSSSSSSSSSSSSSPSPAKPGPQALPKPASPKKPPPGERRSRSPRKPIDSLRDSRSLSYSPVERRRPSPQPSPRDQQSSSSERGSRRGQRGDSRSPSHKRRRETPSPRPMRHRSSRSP
UniProt Q9Y2A7: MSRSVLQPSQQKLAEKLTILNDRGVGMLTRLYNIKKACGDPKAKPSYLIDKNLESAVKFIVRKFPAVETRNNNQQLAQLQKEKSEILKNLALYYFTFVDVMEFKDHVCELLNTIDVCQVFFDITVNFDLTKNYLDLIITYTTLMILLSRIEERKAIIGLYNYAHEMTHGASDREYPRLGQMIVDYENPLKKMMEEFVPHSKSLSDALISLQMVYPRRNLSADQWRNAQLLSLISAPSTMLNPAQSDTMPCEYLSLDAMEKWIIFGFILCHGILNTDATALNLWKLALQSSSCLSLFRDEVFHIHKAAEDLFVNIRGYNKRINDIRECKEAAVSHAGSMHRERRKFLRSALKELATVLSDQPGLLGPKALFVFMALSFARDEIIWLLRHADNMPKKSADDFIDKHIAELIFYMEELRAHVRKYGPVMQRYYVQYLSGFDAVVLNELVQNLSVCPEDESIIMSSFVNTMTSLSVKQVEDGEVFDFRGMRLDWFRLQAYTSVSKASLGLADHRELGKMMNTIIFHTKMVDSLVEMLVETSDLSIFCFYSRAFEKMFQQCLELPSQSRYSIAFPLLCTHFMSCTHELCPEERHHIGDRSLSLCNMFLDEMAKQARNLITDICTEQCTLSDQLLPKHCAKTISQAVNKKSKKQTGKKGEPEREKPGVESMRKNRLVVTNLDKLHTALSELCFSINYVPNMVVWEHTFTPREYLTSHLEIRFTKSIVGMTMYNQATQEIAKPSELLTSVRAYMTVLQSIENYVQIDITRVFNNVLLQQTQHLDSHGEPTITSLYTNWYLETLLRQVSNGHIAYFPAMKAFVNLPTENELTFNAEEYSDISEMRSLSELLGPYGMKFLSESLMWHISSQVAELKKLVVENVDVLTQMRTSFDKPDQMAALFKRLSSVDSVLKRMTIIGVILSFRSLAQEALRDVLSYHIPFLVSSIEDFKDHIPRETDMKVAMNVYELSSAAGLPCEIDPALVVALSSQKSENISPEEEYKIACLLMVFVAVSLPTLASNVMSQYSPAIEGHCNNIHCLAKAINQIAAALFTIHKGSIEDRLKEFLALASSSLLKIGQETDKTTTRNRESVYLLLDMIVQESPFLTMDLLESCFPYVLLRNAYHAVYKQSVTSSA
UniProt Q9UP83: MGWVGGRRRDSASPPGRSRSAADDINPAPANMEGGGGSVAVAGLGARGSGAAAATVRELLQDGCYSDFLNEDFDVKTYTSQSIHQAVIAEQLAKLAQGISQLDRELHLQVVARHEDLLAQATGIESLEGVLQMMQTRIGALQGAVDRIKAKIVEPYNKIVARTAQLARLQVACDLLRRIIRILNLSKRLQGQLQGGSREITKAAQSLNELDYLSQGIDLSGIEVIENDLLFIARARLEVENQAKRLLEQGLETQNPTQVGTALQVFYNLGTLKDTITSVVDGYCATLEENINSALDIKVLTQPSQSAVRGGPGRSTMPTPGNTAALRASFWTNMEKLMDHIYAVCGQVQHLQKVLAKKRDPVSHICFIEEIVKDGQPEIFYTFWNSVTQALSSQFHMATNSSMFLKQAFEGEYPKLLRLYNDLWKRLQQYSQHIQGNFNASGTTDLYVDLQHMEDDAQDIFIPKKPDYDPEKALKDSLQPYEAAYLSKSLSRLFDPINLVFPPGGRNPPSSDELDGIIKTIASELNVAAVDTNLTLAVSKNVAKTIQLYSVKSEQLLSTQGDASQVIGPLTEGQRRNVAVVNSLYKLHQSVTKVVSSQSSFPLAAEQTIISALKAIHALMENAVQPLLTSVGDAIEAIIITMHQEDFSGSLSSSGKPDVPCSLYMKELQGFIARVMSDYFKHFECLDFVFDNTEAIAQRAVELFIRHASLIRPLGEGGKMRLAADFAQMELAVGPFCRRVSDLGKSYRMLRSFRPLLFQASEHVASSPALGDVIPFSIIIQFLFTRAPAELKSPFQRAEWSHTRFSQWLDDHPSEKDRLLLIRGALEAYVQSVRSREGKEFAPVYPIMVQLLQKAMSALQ
UniProt Q9UKX7: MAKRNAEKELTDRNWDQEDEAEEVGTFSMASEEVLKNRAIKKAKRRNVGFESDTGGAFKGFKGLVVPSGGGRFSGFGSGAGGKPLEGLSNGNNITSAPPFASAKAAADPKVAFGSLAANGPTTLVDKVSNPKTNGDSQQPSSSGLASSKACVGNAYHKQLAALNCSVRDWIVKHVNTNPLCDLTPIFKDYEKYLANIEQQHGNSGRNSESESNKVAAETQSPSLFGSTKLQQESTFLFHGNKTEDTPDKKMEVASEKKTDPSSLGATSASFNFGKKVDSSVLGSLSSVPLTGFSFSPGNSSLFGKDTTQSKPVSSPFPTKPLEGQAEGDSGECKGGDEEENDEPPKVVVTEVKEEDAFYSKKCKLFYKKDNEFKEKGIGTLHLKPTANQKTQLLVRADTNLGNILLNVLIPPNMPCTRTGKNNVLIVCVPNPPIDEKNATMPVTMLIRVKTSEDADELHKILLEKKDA

Compound: Nc1ncnc2c1ncn2[C@@H]1O[C@H](COP(=O)(O)OP(=O)(O)NP(=O)(O)O)[C@@H](O)[C@H]1O [adenylyl imidodiphosphate]
Assay: NP40-soluble protein abundance relative to vehicle (solubility fold change) (ratio); higher = more soluble protein in presence of AMP-PNP
Method in brief: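 Jurkat crude lysate prepared with a Dounce homogeniser was treated at eight concentrations spanning 0.1 to 10 mM, 10 min at room temperature then 3 min at 37 °C. Solubilisation with 0.8% NP40 and benzonase and ultracentrifugation preceded TMT labelling of the supernatant for LC-MS/MS. Fold change against the detergent-processed vehicle was determined per replicate from vsn-normalised intensities, across three independent experiments.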

GTF3C4 (UniProt Q9UKN8)
NP40-soluble protein abundance (concentration: 1mM): 1.01 ± 0.06
NP40-soluble protein abundance (concentration: 2mM): 0.967 ± 0.11
NP40-soluble protein abundance (concentration: 4mM): 1.02 ± 0.06
NP40-soluble protein abundance (concentration: 6mM): 0.989 ± 0.031
NP40-soluble protein abundance (concentration: 8mM): 0.999 ± 0.06
NP40-soluble protein abundance (concentration: 10mM): 1 ± 0.032

COPS3 (UniProt Q9UNS2)
NP40-soluble protein abundance (concentration: 1mM): 0.996 ± 0.016
NP40-soluble protein abundance (concentration: 2mM): 1.02 ± 0.071
NP40-soluble protein abundance (concentration: 4mM): 0.999 ± 0.044
NP40-soluble protein abundance (concentration: 6mM): 1.04 ± 0.051
NP40-soluble protein abundance (concentration: 8mM): 1.02 ± 0.053
NP40-soluble protein abundance (concentration: 10mM): 1.03 ± 0.088

UniProt Q9UH03 and related entries
NP40-soluble protein abundance (concentration: 1mM): 1.01 ± 0.036
NP40-soluble protein abundance (concentration: 2mM): 0.992 ± 0.029
NP40-soluble protein abundance (concentration: 4mM): 0.987 ± 0.027
NP40-soluble protein abundance (concentration: 6mM): 0.981 ± 0.012
NP40-soluble protein abundance (concentration: 8mM): 0.981 ± 0.023
NP40-soluble protein abundance (concentration: 10mM): 0.99 ± 0.023

UniProt Q9UGR2 and related entries
NP40-soluble protein abundance (concentration: 1mM): 1.02 ± 0.02
NP40-soluble protein abundance (concentration: 2mM): 1.03 ± 0.033
NP40-soluble protein abundance (concentration: 4mM): 1.06 ± 0.043
NP40-soluble protein abundance (concentration: 6mM): 1.02 ± 0.011
NP40-soluble protein abundance (concentration: 8mM): 1.07 ± 0.065
NP40-soluble protein abundance (concentration: 10mM): 1.06 ± 0.051

AK3 (UniProt Q9UIJ7)
NP40-soluble protein abundance (concentration: 1mM): 0.911 ± 0.035
NP40-soluble protein abundance (concentration: 2mM): 0.917 ± 0.021
NP40-soluble protein abundance (concentration: 4mM): 0.9176 ± 0.0076
NP40-soluble protein abundance (concentration: 6mM): 0.93 ± 0.041
NP40-soluble protein abundance (concentration: 8mM): 0.927 ± 0.009
NP40-soluble protein abundance (concentration: 10mM): 0.889 ± 0.055

PFDN2 (UniProt Q9UHV9)
NP40-soluble protein abundance (concentration: 1mM): 1.05 ± 0.084
NP40-soluble protein abundance (concentration: 2mM): 1.11 ± 0.11
NP40-soluble protein abundance (concentration: 4mM): 0.986 ± 0.062
NP40-soluble protein abundance (concentration: 6mM): 0.928 ± 0.1
NP40-soluble protein abundance (concentration: 8mM): 0.85 ± 0.016
NP40-soluble protein abundance (concentration: 10mM): 0.941 ± 0.083

UniProt Q9UG22
NP40-soluble protein abundance (concentration: 1mM): 1.05 ± 0.069
NP40-soluble protein abundance (concentration: 2mM): 0.995 ± 0.077
NP40-soluble protein abundance (concentration: 4mM): 0.973 ± 0.029
NP40-soluble protein abundance (concentration: 6mM): 1 ± 0.035
NP40-soluble protein abundance (concentration: 8mM): 0.985 ± 0.077
NP40-soluble protein abundance (concentration: 10mM): 0.988 ± 0.099

SRRM2 (UniProt Q9UQ35)
NP40-soluble protein abundance (concentration: 1mM): 1.08 ± 0.035
NP40-soluble protein abundance (concentration: 2mM): 1.13 ± 0.074
NP40-soluble protein abundance (concentration: 4mM): 1.1 ± 0.021
NP40-soluble protein abundance (concentration: 6mM): 1.05 ± 0.08
NP40-soluble protein abundance (concentration: 8mM): 1.03 ± 0.042
NP40-soluble protein abundance (concentration: 10mM): 1.09 ± 0.044

DNAJB11 (UniProt Q9UBS4)
NP40-soluble protein abundance (concentration: 1mM): 0.978 ± 0.022
NP40-soluble protein abundance (concentration: 2mM): 0.953 ± 0.052
NP40-soluble protein abundance (concentration: 4mM): 0.942 ± 0.046
NP40-soluble protein abundance (concentration: 6mM): 0.889 ± 0.058
NP40-soluble protein abundance (concentration: 8mM): 0.894 ± 0.052
NP40-soluble protein abundance (concentration: 10mM): 0.846 ± 0.061

PACSIN3 (UniProt Q9UKS6)
NP40-soluble protein abundance (concentration: 1mM): 1.02 ± 0.066
NP40-soluble protein abundance (concentration: 2mM): 1.08 ± 0.059
NP40-soluble protein abundance (concentration: 4mM): 1.06 ± 0.041
NP40-soluble protein abundance (concentration: 6mM): 1.1 ± 0.034
NP40-soluble protein abundance (concentration: 8mM): 1.09 ± 0.04
NP40-soluble protein abundance (concentration: 10mM): 1.08 ± 0.023

UniProt Q9Y2A7 and related entries
NP40-soluble protein abundance (concentration: 1mM): 0.972 ± 0.026
NP40-soluble protein abundance (concentration: 2mM): 0.974 ± 0.034
NP40-soluble protein abundance (concentration: 4mM): 0.9706 ± 0.0091
NP40-soluble protein abundance (concentration: 6mM): 1 ± 0.019
NP40-soluble protein abundance (concentration: 8mM): 0.976 ± 0.02
NP40-soluble protein abundance (concentration: 10mM): 0.985 ± 0.026

UniProt Q9UP83 and related entries
NP40-soluble protein abundance (concentration: 1mM): 1 ± 0.035
NP40-soluble protein abundance (concentration: 2mM): 1.01 ± 0.016
NP40-soluble protein abundance (concentration: 4mM): 0.999 ± 0.02
NP40-soluble protein abundance (concentration: 6mM): 0.963 ± 0.047
NP40-soluble protein abundance (concentration: 8mM): 0.96 ± 0.061
NP40-soluble protein abundance (concentration: 10mM): 0.98 ± 0.071

UniProt Q9UK53-2|A0A0C4DFW2|Q9UK53 and related entries
NP40-soluble protein abundance (concentration: 1mM): 1.04 ± 0.081
NP40-soluble protein abundance (concentration: 2mM): 1.03 ± 0.039
NP40-soluble protein abundance (concentration: 4mM): 1.04 ± 0.11
NP40-soluble protein abundance (concentration: 6mM): 1.03 ± 0.084
NP40-soluble protein abundance (concentration: 8mM): 1.06 ± 0.1
NP40-soluble protein abundance (concentration: 10mM): 1.04 ± 0.063

UniProt Q9UKX7 and related entries
NP40-soluble protein abundance (concentration: 1mM): 1.08 ± 0.018
NP40-soluble protein abundance (concentration: 2mM): 1.13 ± 0.053
NP40-soluble protein abundance (concentration: 4mM): 1.12 ± 0.039
NP40-soluble protein abundance (concentration: 6mM): 1.14 ± 0.084
NP40-soluble protein abundance (concentration: 8mM): 1.14 ± 0.062
NP40-soluble protein abundance (concentration: 10mM): 1.17 ± 0.081

UniProt Q9Y2S0 and related entries
NP40-soluble protein abundance (concentration: 1mM): 1.03 ± 0.024
NP40-soluble protein abundance (concentration: 2mM): 1.06 ± 0.053
NP40-soluble protein abundance (concentration: 4mM): 1.08 ± 0.062
NP40-soluble protein abundance (concentration: 6mM): 1.02 ± 0.018
NP40-soluble protein abundance (concentration: 8mM): 1.03 ± 0.041
NP40-soluble protein abundance (concentration: 10mM): 1.07 ± 0.036
